PubChem BioAssay AID1224830 | NIAID – 2016

Aim: 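Host factors that control LPS-induced TNF expression in human macrophages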 (primary screen)
System: human THP-1 monocytic leukaemia cells, TNF dual-luciferase reporter clone, PMA-differentiated to macrophage-like cells
Knock-down reagent: siRNA pool against human genes, 50 nM
Timing: LPS for 4 h, given about 3 days after siRNA transfection
Challenge: bacterial LPS (TLR4 ligand), 10 ng/ml
Measured: 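TNF firefly reporter luminescence divided by renilla, normalised to the plate median, then turned into a robust z-score for each replicate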
Reading the numbers: TNF reporter robust z-score: higher = stronger TNF reporter response to LPS
Rule for the call: 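Each well counts as active if its z-score is over 2.8 or under -1.5; controls are left without a call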
Here is an unselected part of about 18,000 reagents. Over the whole deposit, about 2,900 (16%) got an active call. 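Calls are made per well; low scores hint the gene aids the LPS response, high scores that it dampens it.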 Repeated entries: four replicate wells of each siRNA pool. Reagent sequences are not shown.

The first 5 entries, ahead of the listing:
no.	gene knocked down	TNF reporter robust z-score	Call
1	KLHL28 (kelch like family member 28)	0.62	inactive
2	KLHL28 (kelch like family member 28)	-0.17	inactive
3	KLHL28 (kelch like family member 28)	0.41	inactive
4	KLHL28 (kelch like family member 28)	1.37	inactive
5	GRPEL2 (GrpE like 2, mitochondrial)	-0.33	inactive

The list itself, from the start:
no.	gene knocked down	TNF reporter robust z-score	Call
1	KLHL28 (kelch like family member 28)	0.62	inactive
2	KLHL28 (kelch like family member 28)	-0.17	inactive
3	KLHL28 (kelch like family member 28)	0.41	inactive
4	KLHL28 (kelch like family member 28)	1.37	inactive
5	GRPEL2 (GrpE like 2, mitochondrial)	-0.33	inactive
6	GRPEL2 (GrpE like 2, mitochondrial)	0.06	inactive
7	GRPEL2 (GrpE like 2, mitochondrial)	-0.49	inactive
8	GRPEL2 (GrpE like 2, mitochondrial)	0.26	inactive
9	DDX3Y (DEAD-box helicase 3 Y-linked)	0.39	inactive
10	DDX3Y (DEAD-box helicase 3 Y-linked)	0.6	inactive
11	DDX3Y (DEAD-box helicase 3 Y-linked)	-0.42	inactive
12	DDX3Y (DEAD-box helicase 3 Y-linked)	-0.05	inactive
13	USP11 (ubiquitin specific peptidase 11)	-0.25	inactive
14	USP11 (ubiquitin specific peptidase 11)	-0.43	inactive
15	USP11 (ubiquitin specific peptidase 11)	1.69	inactive
16	USP11 (ubiquitin specific peptidase 11)	0.27	inactive
17	CIITA (class II major histocompatibility complex transactivator)	-0.45	inactive
18	CIITA (class II major histocompatibility complex transactivator)	0.62	inactive
19	CIITA (class II major histocompatibility complex transactivator)	0.74	inactive
20	CIITA (class II major histocompatibility complex transactivator)	1.89	inactive
21	DUSP23 (dual specificity phosphatase 23)	0.15	inactive
22	DUSP23 (dual specificity phosphatase 23)	0.09	inactive
23	DUSP23 (dual specificity phosphatase 23)	-0.09	inactive
24	DUSP23 (dual specificity phosphatase 23)	-0.21	inactive
25	POLR2B (RNA polymerase II subunit B)	-0.37	inactive
26	POLR2B (RNA polymerase II subunit B)	0.69	inactive
27	POLR2B (RNA polymerase II subunit B)	-0.01	inactive
28	POLR2B (RNA polymerase II subunit B)	0.15	inactive
29	VPS18 (VPS18 core subunit of CORVET and HOPS complexes)	-1.53	active
30	VPS18 (VPS18 core subunit of CORVET and HOPS complexes)	-0.12	inactive
31	VPS18 (VPS18 core subunit of CORVET and HOPS complexes)	-0.38	inactive
32	VPS18 (VPS18 core subunit of CORVET and HOPS complexes)	0.45	inactive
33	STAR (steroidogenic acute regulatory protein)	-0.02	inactive
34	STAR (steroidogenic acute regulatory protein)	1.35	inactive
35	STAR (steroidogenic acute regulatory protein)	1.11	inactive
36	STAR (steroidogenic acute regulatory protein)	1.73	inactive
37	ARPC5L (actin related protein 2/3 complex subunit 5 like)	-0.32	inactive
38	ARPC5L (actin related protein 2/3 complex subunit 5 like)	0.16	inactive
39	ARPC5L (actin related protein 2/3 complex subunit 5 like)	1.88	inactive
40	EPC2 (enhancer of polycomb 2)	1.06	inactive
41	EPC2 (enhancer of polycomb 2)	-0.61	inactive
42	EPC2 (enhancer of polycomb 2)	1.11	inactive
43	EPC2 (enhancer of polycomb 2)	0.87	inactive
44	ELAVL1 (ELAV like RNA binding protein 1)	0.28	inactive
45	ELAVL1 (ELAV like RNA binding protein 1)	0.16	inactive
46	ELAVL1 (ELAV like RNA binding protein 1)	0.14	inactive
47	ELAVL1 (ELAV like RNA binding protein 1)	0.21	inactive
